Consider 1 substance from article PMC11345397.

Amino acid sequences for entries named in this document (tags omitted). A change or cut given only in a name is not applied to a line headed by its entry.
UniProt Q86UW9: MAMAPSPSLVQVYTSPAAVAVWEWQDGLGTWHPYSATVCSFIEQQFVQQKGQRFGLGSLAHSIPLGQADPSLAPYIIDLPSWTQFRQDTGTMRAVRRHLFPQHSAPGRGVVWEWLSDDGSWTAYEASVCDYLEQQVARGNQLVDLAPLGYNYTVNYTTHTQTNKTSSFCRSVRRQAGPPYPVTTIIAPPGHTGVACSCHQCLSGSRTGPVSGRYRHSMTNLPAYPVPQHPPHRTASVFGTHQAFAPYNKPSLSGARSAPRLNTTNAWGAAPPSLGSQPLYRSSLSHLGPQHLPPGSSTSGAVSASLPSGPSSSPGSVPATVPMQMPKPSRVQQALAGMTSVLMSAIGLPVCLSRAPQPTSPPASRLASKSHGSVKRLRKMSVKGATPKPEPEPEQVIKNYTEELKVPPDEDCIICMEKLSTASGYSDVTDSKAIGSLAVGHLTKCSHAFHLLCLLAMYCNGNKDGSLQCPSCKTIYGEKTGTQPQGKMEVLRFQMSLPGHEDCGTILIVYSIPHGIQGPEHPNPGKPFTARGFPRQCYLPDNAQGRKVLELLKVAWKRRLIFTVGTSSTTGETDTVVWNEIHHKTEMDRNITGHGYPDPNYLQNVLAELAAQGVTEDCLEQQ
UniProt P09874: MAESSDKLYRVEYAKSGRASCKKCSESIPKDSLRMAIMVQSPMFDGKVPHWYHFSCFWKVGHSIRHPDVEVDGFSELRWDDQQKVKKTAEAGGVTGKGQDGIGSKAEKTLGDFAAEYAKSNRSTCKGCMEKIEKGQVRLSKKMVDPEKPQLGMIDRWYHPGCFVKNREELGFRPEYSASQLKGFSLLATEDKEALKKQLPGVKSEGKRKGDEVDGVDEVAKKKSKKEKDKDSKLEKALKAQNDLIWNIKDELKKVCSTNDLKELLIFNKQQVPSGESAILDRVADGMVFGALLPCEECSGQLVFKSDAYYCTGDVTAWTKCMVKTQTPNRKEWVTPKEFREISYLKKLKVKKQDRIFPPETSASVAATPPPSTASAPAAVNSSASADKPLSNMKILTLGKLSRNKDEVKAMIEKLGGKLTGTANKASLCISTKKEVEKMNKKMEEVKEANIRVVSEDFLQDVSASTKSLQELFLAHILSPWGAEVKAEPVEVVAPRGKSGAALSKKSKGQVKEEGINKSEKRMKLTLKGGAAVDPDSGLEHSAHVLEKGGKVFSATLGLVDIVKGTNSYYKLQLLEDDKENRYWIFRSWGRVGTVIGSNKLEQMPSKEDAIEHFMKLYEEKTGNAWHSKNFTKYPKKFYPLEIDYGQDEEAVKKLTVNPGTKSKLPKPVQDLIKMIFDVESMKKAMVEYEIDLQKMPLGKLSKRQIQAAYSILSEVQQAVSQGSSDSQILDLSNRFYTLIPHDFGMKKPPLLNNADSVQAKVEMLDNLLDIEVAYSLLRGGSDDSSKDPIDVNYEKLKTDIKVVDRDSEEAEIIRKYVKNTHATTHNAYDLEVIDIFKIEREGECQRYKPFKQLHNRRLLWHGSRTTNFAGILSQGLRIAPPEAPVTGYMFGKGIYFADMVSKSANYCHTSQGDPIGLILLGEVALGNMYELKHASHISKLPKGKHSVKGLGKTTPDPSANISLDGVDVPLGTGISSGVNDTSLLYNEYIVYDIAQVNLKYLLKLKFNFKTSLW

No constants are given. Whether binding was seen depends on the method and setting. Binding seen in cells or lysates may run through a third protein.

For this assay, the target named is SFB-tagged DTX2B RING∗ (human) (UniProt Q86UW9). Briefly: pull-down; streptavidin pull-down (MagReSyn Streptavidin beads, 1 h, 4 °C) of SFB-tagged bait from lysates of transfected HEK293T cells treated with DMSO and then 2 mM H2O2 for 10 min; lysis in 50 mM Tris-HCl pH 7.5, 150 mM NaCl, 1% NP-40 with PARG inhibitor and olaparib; immunoblotting. (In western blotting, separated proteins are transferred to a membrane and probed.)

Take PARP1 (from UniProt P09874 1-1014): the binding entry is listed as “no binding”.
